Counter-ions that a name gives are not always drawn. This is one part of the list. The calls rarely recur for the same compound in another form.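 Kinases were expressed as nanoluciferase fusions in K562 cells and luminescence was read every 4 h between 2 and 18 h as percent of control, DMSO set to 100% and a positive control to 0%. A time point counts as decreased when the signal drops significantly (2 sigma). The hit call is the authors' own, does not follow from the count of time points alone, and its rule is not shown.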
Experiments:
Test in all cases: kinase-Nluc reporter destabilization hit call (1 = scored as downregulated) (binary); higher = compound decreases kinase abundance
Settings in all cases: K562; 2-18 h
[1] = molecular target: MAPK1 (UniProt P28482)
[2] = molecular target: MAPK4 (UniProt P31152)
[3] = molecular target: MAPKAPK2 (UniProt P49137)
[4] = molecular target: MKNK1 (UniProt Q9BUB5)
[5] = molecular target: NTRK2 (UniProt Q16620)
[6] = molecular target: NTRK3 (UniProt Q16288)
[7] = molecular target: PAK4 (UniProt O96013)
[8] = molecular target: PBK (UniProt Q96KB5)
[9] = molecular target: PDGFRB (UniProt P09619)
[10] = molecular target: PDK1 (UniProt Q15118)
[11] = molecular target: PDPK1 (UniProt O15530)
[12] = molecular target: PIK4CA (UniProt P42356)
[13] = molecular target: PIK4CB (UniProt Q9UBF8)
[14] = molecular target: PLK1 (UniProt P53350)
[15] = molecular target: PRKAA1 (UniProt Q13131)
[16] = molecular target: PRKCA (UniProt P17252)
[17] = molecular target: PTK2 (UniProt Q05397)
[18] = molecular target: PTK2B (UniProt Q14289)
[19] = molecular target: RAF1 (UniProt P04049)
[20] = molecular target: RAF1_S257L (clone: RAF1_mut) (UniProt P04049)

Sequences of proteins named here, by UniProt entry; tags and fusion partners are left off. A change or cut given only in a name is not applied to a line headed by its entry.
UniProt P49137, whole entry, looked up: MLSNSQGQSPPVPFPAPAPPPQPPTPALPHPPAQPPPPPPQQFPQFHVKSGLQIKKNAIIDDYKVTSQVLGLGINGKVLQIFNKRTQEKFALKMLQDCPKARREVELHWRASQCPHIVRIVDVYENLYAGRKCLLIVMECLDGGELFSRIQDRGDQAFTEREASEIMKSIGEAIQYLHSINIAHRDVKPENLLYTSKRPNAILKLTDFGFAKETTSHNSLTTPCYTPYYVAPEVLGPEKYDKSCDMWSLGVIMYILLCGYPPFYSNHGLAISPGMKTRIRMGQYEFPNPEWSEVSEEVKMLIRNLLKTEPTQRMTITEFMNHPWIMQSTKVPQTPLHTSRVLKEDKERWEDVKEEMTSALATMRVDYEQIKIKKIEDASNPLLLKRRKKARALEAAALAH
UniProt Q16288, whole entry, looked up: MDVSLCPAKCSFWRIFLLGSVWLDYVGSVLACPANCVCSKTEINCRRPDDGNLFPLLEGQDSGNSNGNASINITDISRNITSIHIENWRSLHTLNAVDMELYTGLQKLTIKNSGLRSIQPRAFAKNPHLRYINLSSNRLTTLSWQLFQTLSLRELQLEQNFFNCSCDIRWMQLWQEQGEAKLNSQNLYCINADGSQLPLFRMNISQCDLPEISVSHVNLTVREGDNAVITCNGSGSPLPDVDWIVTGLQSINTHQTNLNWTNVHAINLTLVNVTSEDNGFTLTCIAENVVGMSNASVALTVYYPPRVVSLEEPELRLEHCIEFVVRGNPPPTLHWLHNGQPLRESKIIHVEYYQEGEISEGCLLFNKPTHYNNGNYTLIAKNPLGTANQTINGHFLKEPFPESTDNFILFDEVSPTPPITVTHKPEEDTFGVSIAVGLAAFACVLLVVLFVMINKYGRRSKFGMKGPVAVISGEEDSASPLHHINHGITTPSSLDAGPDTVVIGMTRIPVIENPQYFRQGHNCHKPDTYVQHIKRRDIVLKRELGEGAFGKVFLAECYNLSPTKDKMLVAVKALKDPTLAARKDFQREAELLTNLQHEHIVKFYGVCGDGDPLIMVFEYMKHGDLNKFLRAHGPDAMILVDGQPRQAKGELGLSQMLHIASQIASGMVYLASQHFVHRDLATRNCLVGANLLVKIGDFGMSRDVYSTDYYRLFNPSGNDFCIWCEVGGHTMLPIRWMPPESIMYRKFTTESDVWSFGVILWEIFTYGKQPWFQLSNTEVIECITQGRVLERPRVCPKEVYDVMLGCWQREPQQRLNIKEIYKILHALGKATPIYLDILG
UniProt Q96KB5: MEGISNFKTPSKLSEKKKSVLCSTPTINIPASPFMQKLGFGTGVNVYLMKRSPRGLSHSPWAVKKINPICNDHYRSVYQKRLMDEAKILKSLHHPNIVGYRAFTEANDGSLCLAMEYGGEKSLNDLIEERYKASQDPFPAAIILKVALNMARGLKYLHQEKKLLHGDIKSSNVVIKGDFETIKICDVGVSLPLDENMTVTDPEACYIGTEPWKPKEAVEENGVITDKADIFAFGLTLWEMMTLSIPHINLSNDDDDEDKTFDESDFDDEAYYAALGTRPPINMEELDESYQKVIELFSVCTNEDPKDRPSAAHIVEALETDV
UniProt Q15118, whole entry, looked up: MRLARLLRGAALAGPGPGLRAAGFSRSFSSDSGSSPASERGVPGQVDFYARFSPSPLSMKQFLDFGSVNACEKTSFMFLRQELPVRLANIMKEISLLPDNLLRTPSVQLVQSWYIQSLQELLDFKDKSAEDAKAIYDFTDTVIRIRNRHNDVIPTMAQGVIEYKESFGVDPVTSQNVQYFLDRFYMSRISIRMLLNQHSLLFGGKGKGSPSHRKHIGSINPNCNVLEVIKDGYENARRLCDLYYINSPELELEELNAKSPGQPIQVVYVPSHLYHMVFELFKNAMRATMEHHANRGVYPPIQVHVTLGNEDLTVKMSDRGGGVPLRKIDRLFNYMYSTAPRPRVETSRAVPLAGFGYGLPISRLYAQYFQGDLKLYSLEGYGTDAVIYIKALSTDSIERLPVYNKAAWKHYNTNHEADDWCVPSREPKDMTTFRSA
UniProt P42356, whole entry, looked up: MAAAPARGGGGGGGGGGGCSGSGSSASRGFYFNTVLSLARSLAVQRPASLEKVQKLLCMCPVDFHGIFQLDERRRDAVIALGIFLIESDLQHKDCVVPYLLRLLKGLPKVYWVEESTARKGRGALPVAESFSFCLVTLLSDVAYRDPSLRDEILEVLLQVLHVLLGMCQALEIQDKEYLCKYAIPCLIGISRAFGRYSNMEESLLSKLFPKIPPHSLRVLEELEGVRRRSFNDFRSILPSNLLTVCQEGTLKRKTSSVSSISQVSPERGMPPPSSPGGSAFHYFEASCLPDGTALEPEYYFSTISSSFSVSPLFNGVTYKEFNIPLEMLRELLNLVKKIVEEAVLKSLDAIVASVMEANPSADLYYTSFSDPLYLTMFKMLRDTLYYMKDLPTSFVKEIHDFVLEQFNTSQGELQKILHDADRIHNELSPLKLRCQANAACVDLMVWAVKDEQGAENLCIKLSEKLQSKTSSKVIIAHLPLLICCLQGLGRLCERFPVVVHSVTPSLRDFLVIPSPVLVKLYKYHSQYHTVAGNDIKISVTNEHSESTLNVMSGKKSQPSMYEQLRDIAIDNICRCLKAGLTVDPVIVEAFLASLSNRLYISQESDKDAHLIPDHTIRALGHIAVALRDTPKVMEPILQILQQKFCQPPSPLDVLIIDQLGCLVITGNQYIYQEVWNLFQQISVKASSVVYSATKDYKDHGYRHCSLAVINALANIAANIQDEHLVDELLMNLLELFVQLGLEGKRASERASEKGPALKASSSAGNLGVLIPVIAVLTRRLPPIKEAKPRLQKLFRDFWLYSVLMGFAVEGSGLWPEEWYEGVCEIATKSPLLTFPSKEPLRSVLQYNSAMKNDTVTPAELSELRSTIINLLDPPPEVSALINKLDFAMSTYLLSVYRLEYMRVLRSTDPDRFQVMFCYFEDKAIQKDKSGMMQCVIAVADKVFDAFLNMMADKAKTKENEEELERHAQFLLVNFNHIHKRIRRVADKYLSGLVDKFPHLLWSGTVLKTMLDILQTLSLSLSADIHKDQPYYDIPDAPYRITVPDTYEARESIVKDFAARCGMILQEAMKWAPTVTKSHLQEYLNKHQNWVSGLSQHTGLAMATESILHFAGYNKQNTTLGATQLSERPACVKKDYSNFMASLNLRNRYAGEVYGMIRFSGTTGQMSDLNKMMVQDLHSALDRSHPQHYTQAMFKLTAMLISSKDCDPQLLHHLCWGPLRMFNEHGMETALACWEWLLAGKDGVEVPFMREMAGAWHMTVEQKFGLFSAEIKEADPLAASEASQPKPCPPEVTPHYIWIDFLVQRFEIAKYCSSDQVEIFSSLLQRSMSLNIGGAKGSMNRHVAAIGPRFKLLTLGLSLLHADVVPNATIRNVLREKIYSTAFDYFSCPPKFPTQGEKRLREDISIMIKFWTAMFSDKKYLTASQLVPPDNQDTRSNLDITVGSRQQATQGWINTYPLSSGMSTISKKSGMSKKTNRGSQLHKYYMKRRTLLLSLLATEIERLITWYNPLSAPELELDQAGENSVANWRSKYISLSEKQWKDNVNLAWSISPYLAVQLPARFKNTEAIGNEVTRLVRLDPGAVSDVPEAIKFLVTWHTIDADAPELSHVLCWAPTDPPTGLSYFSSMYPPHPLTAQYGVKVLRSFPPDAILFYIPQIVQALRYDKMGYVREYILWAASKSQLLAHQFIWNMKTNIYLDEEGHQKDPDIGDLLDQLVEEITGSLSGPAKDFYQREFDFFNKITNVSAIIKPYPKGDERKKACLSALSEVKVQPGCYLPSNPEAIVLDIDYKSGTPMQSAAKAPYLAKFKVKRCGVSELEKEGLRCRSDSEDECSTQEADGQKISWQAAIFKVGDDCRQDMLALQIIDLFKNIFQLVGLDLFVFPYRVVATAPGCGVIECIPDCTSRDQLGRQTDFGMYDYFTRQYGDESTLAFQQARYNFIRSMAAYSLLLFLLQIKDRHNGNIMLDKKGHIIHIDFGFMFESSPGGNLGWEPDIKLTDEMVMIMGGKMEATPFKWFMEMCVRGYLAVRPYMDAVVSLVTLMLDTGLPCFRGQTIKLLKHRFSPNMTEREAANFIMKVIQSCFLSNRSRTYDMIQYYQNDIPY
UniProt Q13131: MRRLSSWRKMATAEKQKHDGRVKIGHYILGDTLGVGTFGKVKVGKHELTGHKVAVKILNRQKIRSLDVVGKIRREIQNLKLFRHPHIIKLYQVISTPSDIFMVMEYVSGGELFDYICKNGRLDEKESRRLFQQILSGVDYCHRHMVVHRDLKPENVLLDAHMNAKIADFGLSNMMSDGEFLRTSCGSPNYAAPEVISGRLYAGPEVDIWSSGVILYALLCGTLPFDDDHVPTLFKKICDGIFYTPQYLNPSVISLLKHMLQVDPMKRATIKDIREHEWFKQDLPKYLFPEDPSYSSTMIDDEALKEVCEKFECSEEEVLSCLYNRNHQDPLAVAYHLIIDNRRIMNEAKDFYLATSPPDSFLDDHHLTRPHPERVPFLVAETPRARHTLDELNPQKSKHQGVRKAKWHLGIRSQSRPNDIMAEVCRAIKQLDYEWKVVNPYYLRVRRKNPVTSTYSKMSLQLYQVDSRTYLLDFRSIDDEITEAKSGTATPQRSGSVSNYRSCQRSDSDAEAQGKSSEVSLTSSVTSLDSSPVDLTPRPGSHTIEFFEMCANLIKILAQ
UniProt Q05397, whole entry, looked up: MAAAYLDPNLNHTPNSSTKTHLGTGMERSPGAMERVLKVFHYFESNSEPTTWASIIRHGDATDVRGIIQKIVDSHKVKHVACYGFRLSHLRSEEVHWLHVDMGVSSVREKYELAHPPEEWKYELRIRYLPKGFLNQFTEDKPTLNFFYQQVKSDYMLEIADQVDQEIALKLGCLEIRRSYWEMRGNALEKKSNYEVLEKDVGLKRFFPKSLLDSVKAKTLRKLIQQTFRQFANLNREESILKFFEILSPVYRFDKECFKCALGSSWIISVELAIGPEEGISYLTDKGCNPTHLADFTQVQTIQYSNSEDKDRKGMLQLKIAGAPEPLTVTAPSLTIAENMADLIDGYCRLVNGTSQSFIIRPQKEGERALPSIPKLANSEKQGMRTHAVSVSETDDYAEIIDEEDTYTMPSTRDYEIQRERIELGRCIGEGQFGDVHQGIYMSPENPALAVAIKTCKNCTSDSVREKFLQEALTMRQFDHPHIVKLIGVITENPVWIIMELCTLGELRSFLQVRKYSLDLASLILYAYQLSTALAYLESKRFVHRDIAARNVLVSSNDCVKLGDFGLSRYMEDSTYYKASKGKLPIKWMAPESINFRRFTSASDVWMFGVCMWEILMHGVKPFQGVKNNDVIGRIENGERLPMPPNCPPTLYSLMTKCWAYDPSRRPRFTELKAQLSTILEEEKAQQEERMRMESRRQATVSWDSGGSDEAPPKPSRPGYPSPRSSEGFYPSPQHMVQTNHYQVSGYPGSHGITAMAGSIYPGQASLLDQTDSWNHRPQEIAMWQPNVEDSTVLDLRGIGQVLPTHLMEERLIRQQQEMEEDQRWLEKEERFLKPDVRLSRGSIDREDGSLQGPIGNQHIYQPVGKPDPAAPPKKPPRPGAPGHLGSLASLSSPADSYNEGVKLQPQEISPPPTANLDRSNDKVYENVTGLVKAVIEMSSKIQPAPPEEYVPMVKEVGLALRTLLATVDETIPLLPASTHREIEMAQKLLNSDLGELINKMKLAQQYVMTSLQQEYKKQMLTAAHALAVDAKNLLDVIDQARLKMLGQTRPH

Compound | kinase-Nluc reporter destabilization hit call [1] | kinase-Nluc reporter destabilization hit call [2] | kinase-Nluc reporter destabilization hit call [3] | kinase-Nluc reporter destabilization hit call [4] | kinase-Nluc reporter destabilization hit call [5] | kinase-Nluc reporter destabilization hit call [6] | kinase-Nluc reporter destabilization hit call [7] | kinase-Nluc reporter destabilization hit call [8] | kinase-Nluc reporter destabilization hit call [9] | kinase-Nluc reporter destabilization hit call [10] | kinase-Nluc reporter destabilization hit call [11] | kinase-Nluc reporter destabilization hit call [12] | kinase-Nluc reporter destabilization hit call [13] | kinase-Nluc reporter destabilization hit call [14] | kinase-Nluc reporter destabilization hit call [15] | kinase-Nluc reporter destabilization hit call [16] | kinase-Nluc reporter destabilization hit call [17] | kinase-Nluc reporter destabilization hit call [18] | kinase-Nluc reporter destabilization hit call [19] | kinase-Nluc reporter destabilization hit call [20]
CNc1nc(Nc2cn(C(C)(C)C#N)nc2C)ncc1C(F)(F)F (10 µM) | inactive: 0 | inactive: 0 | inactive: 0 | inactive: 0 | inactive: 0 | inactive: 0 | inactive: 0 | inactive: 0 | inactive: 0 | inactive: 0 | inactive: 0 | inactive: 0 | inactive: 0 | inactive: 0 | inactive: 0 | inactive: 0 | inactive: 0 | inactive: 0 | inactive: 0 | inactive: 0
O=c1cc(N2CCOCC2)nc2c3ccccc3ccn12 [Compound 401] (10 µM) | inactive: 0 | inactive: 0 | inactive: 0 | inactive: 0 | inactive: 0 | inactive: 0 | inactive: 0 | inactive: 0 | inactive: 0 | inactive: 0 | inactive: 0 | inactive: 0 | inactive: 0 | inactive: 0 | inactive: 0 | inactive: 0 | inactive: 0 | inactive: 0 | inactive: 0 | active: 1
CC(C)(C[C@H](N)C(=O)O)C(F)F [NV-5138 (hydrochloride)] (10 µM) | inactive: 0 | inactive: 0 | inactive: 0 | inactive: 0 | inactive: 0 | inactive: 0 | inactive: 0 | inactive: 0 | inactive: 0 | inactive: 0 | inactive: 0 | inactive: 0 | inactive: 0 | inactive: 0 | inactive: 0 | inactive: 0 | inactive: 0 | inactive: 0 | inactive: 0 | inactive: 0
CC(C)C[C@@H](C(=O)Nc1ccn(C[C@@H](O)CO)n1)N1CC(Oc2ccccc2Cl)=CC1=O [Dorzagliatin] (10 µM) | inactive: 0 | inactive: 0 | inactive: 0 | inactive: 0 | inactive: 0 | inactive: 0 | inactive: 0 | inactive: 0 | inactive: 0 | inactive: 0 | inactive: 0 | inactive: 0 | inactive: 0 | inactive: 0 | inactive: 0 | inactive: 0 | inactive: 0 | inactive: 0 | inactive: 0 | inactive: 0
Oc1ccc(/C=C/c2cc(O)cc(F)c2)cc1 [Resveratrol analog 1] (10 µM) | inactive: 0 | inactive: 0 | inactive: 0 | inactive: 0 | inactive: 0 | inactive: 0 | inactive: 0 | inactive: 0 | inactive: 0 | inactive: 0 | inactive: 0 | inactive: 0 | inactive: 0 | inactive: 0 | inactive: 0 | inactive: 0 | inactive: 0 | inactive: 0 | inactive: 0 | inactive: 0
CC(C)(O)[C@H]1CC[C@H](Nc2ccc3ncc(-c4cccc(C(F)(F)F)c4)n3n2)CC1 (10 µM) | inactive: 0 | inactive: 0 | inactive: 0 | inactive: 0 | inactive: 0 | inactive: 0 | inactive: 0 | inactive: 0 | inactive: 0 | inactive: 0 | inactive: 0 | inactive: 0 | inactive: 0 | inactive: 0 | inactive: 0 | inactive: 0 | inactive: 0 | inactive: 0 | inactive: 0 | inactive: 0
O=C1O[C@H]([C@@H](O)CO)C(O)=C1OP(=O)(O)O [2-Phospho-L-ascorbic acid (trisodium)] (10 µM) | inactive: 0 | inactive: 0 | inactive: 0 | inactive: 0 | inactive: 0 | inactive: 0 | inactive: 0 | inactive: 0 | inactive: 0 | inactive: 0 | inactive: 0 | inactive: 0 | inactive: 0 | inactive: 0 | inactive: 0 | inactive: 0 | inactive: 0 | inactive: 0 | inactive: 0 | inactive: 0
CC(C)S(=O)(=O)c1ccc2nccc(Nc3ccc4scnc4c3)c2c1 (10 µM) | inactive: 0 | inactive: 0 | inactive: 0 | inactive: 0 | inactive: 0 | inactive: 0 | inactive: 0 | inactive: 0 | inactive: 0 | inactive: 0 | inactive: 0 | inactive: 0 | inactive: 0 | inactive: 0 | inactive: 0 | inactive: 0 | inactive: 0 | inactive: 0 | inactive: 0 | inactive: 0
Nc1ncnc2c1c(COc1cccc(Cl)c1)nn2C1CCOCC1 (10 µM) | inactive: 0 | inactive: 0 | inactive: 0 | inactive: 0 | inactive: 0 | inactive: 0 | inactive: 0 | inactive: 0 | inactive: 0 | inactive: 0 | inactive: 0 | inactive: 0 | inactive: 0 | inactive: 0 | inactive: 0 | inactive: 0 | inactive: 0 | inactive: 0 | inactive: 0 | inactive: 0

— the supplement of paper PMC12823440, “Inhibitors supercharge kinase turnover through native proteolytic circuits” (Nature, 2025)
